According to PubChem BioAssay AID2685 (National Center for Advancing Translational Sciences (NCATS), 2010):
The whole screen tested about 320,000 compounds, of which about 2,100 (0.66%) were called active. Inconclusive results, whose numbers are uncertain, are shown with a selection of clear calls. Calls come from the whole dose curve; as a rule, active = well fitted inhibition curve with a large enough effect in the signal ratio, with a control signal flat (not every such curve was filed as active); inconclusive = small, poorly fitted or top-dose-only effect, or effect the other way, or a change in a side signal; inactive = flat fitted curve, though single readings scatter; the % refers to the signal ratio. A potency beside an inconclusive call is a rough fit, not a confirmed value.

assay: qHTS Assay for Lipid Storage Modulators in Drosophila S3 Cells; settings: BODIPY lipid droplet fluorescence, 18-24 h, cells fed with added oleic acid; lipid storage change, negative = inhibition: at 46.1 µM (top of the series) unless noted
Outline: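 Drosophila S3 cells got compounds at several concentrations plus oleic acid (400 uM solution). Laser-scanning cytometry with 488 nm excitation read lipid droplets at 500-530 nm and cells at 575-640 nm. Percent activity was relative to 20 uM Triacsin C.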
% is set by controls: 0 for no effect and ±100 for the full control effect; potency is the fitted concentration of half-maximal effect.

| SMILES | lipid storage change, negative = inhibition | Potency | outcome |
| --- | --- | --- | --- |
| Cc1cc(OCc2cccc(Cl)c2)c(C)cc1CN1CCOCC1 | inconclusive: -14.1% | – | – |
| O=[N+]([O-])c1ccccc1S(=O)(=O)c1ccccc1 | – | inconclusive: 0.0052 µM [activator, full curve, poor fit] | – |
| Cc1ccc(NC(=O)C(Cc2ccccc2)NC(=O)OCc2ccccc2)cc1C (configuration not stated) | inconclusive: 51.9% | – | – |
| COc1ccc(NC(=O)CCNS(=O)(=O)c2cccc3nonc23)cc1Cl | inconclusive: 136% | – | – |
| O=c1[nH]c2cc3c(cc2cc1CN(CCN1CCOCC1)C(=S)NCC1CCCO1)OCO3 (configuration not stated) | inconclusive: 16% | – | – |
| CC(C)CC(NC(=O)c1ccco1)C(=O)Nc1ccc2c(c1)OCCO2 (configuration not stated) | – | inconclusive: 6.51 µM [activator, single point] | – |
| O=C(/C=C/c1ccccc1[N+](=O)[O-])OC1CCCCC1=O (configuration not stated) | inconclusive: 12.4% | – | – |
| O=C1Nc2ccc(Cl)cc2C12Nc1ccccc1-c1nnc(SCc3ccccc3F)nc1O2 (configuration not stated) | – | inconclusive: 9.2 µM [falling, partial curve, poor fit] | – |
| Cc1ccc([N+](=O)[O-])c(C(=O)N/N=C/c2cccs2)c1 | inconclusive: 24.5% | – | – |
| CCOc1ncccc1C(=O)OCC(=O)Nc1nnc(-c2ccccc2)o1 | inconclusive: -36.1% [at 0.0737 µM] | – | – |
| Cc1ccc(Cl)cc1N(Cc1ccc(C(=O)NCc2cccnc2)cc1)S(=O)(=O)c1ccccc1 | – | inconclusive: 18.4 µM [falling, single point] | – |
| CCN1CCN(C(=O)C2CCN(c3nnc(-n4c(C)ccc4C)s3)CC2)CC1 | inconclusive: -18% | – | – |
| O=C(c1ccccc1)N1CCOC12CCN(c1ncc(C(F)(F)F)cc1Cl)CC2 | – | inconclusive: 18.4 µM [activator, partial curve] | – |
| CCOC(=O)CCCNC(=O)CSc1nc2ccc(OCC)cc2[nH]1 | inconclusive: 61.4% | – | – |
| Cc1cc(C(=O)COC(=O)c2ccc(O)cc2O)c(C)n1-c1ccccc1 | inconclusive: -76.6% | – | – |
| CC1(C(=O)NC2CCCC2)CCC(=O)N1Cc1cccs1 (configuration not stated) | – | inconclusive: 29.1 µM [activator, single point] | – |
| COC(=O)[C@@H]1C[C@]2(OC(=O)c3ccccc3)C=CC(=O)C[C@@H]2N1C(=O)OCc1ccccc1 | – | inconclusive: 29.1 µM [falling, single point] | – |
| CCCc1ccc(-c2cc(NC(=O)CSc3n[nH]c(N)n3)n(-c3ccccc3)n2)cc1 | inconclusive: -9.3% | – | – |
| Cc1ccc(S(=O)(=O)CCC(=O)OCC(=O)N2c3ccccc3NC(=O)C2(C)C)cc1 | inconclusive: -0.841% | – | – |

| SMILES | lipid storage change, negative = inhibition | Potency | outcome |
| --- | --- | --- | --- |
| CCOc1ccc(C(C(=O)NCC2CCCO2)N(CCc2cccc(C)c2)C(=O)c2snc(C(N)=O)c2N)cc1 (configuration not stated) | – | inconclusive: 18.4 µM [falling, partial curve, poor fit] | – |
| COc1ccc(C2=NN(C(=O)C(O)c3ccccc3)C(O)(C(F)(F)F)C2)cc1 (configuration not stated) | inconclusive: 9.11% | – | – |
| O=Nc1c(O)n(Cc2cccc(C(F)(F)F)c2)c2ccccc12 | inconclusive: -6.31% | – | – |
| COc1cc2c(c(OC)c1OC)-c1c(cc3c(c1OC)OCO3)C[C@H](C)[C@@](C)(O)C2 | inconclusive: 9% | – | – |
| COc1ccc(C(=O)n2nc(C)cc2Nc2ccccc2)cc1 | inconclusive: 204% | – | – |
| COc1cc(CCC(=O)OCC(=O)Nc2c(F)cccc2F)cc(OC)c1OC | inconclusive: -22.2% | – | – |
| Cc1cc(=S)c2ccccc2[nH]1 | inconclusive: 23.1% | – | – |
| CN(C)S(=O)(=O)c1cccc(NC(=S)N2CCc3ccccc32)c1 | – | – | inactive [at 46.1 µM] |
| CCn1c(C(O)c2cc(OC)c(OC)c(OC)c2)nc2ccccc21 (configuration not stated) | – | inconclusive: 16.4 µM [falling, partial curve, poor fit] | – |
| COc1ccc(Cl)cc1NC(=O)CCn1cnc2ccccc2c1=O | – | inconclusive: 1.16 µM [activator, full curve, poor fit] | – |
| Cc1c(C(=O)N(Cc2ccc(F)cc2)C2CCS(=O)(=O)C2)oc2ccccc12 (configuration not stated) | inactive: 3.69% | – | – |
| ClC1(Cl)CC1CSc1ncn[nH]1 (configuration not stated) | inconclusive: -1.9% | – | – |
| Cc1nc(N2CCCCC2)sc1C(=O)c1ccc(Cl)c([N+](=O)[O-])c1 | inconclusive: -1.33% | – | – |
| COc1ccc(NC(=O)C2CCCN(S(=O)(=O)c3ccc4c(c3)CCCN4C(C)=O)C2)cc1 (configuration not stated) | inconclusive: -65.7% | – | – |
| CC1=C(C(=O)OC(C)C)C(c2ccc(C)o2)C(C(=O)OC(C)C)=C(C)N1 | inconclusive: -15% | – | – |
| CC(=O)N1CCc2c(sc(NC(=O)C3CCCN3S(=O)(=O)c3cccs3)c2C(N)=O)C1 (configuration not stated) | inconclusive: -26.9% [at 0.0737 µM] | – | – |
| COc1cccc(NC(=O)CN(C)C(=O)/C=C/c2cc(OC)ccc2OC)c1 | inconclusive: 21.3% | – | – |
| O=S(=O)(Cc1ccccc1)Nc1ccc(Br)cn1 | inconclusive: 68.6% | – | – |

Single records (already shown). Values in the order: lipid storage change, negative = inhibition | Potency | outcome
`COc1cccc(NC(=O)CN(C)C(=O)/C=C/c2cc(OC)ccc2OC)c1` as listed: inconclusive: 21.3% | – | –
`COc1ccc(NC(=O)C2CCCN(S(=O)(=O)c3ccc4c(c3)CCCN4C(C)=O)C2)cc1` (configuration not stated) as listed: inconclusive: -65.7% | – | –
